Reference: the supplement of paper PMC10849652
Some of the results follow.

Amino acid sequences for entries named in this document (tags omitted). A change or cut given only in a name is not applied to a line headed by its entry.
UniProt Q9NRR8: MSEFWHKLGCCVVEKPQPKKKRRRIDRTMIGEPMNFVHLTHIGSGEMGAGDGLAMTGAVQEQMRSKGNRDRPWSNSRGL
UniProt Q96JB5: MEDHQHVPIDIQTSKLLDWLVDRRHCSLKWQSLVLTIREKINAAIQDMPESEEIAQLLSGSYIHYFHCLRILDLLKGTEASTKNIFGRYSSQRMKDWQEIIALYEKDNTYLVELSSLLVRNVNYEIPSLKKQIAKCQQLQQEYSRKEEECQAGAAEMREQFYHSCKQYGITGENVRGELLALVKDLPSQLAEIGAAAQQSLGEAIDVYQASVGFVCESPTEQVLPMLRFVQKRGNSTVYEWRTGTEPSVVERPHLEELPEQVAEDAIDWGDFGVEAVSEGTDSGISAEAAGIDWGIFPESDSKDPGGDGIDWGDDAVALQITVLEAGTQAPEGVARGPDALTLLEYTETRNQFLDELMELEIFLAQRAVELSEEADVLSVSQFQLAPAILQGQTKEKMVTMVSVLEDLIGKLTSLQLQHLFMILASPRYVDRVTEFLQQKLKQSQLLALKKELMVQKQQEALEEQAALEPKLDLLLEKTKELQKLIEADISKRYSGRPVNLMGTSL
UniProt Q96JM3: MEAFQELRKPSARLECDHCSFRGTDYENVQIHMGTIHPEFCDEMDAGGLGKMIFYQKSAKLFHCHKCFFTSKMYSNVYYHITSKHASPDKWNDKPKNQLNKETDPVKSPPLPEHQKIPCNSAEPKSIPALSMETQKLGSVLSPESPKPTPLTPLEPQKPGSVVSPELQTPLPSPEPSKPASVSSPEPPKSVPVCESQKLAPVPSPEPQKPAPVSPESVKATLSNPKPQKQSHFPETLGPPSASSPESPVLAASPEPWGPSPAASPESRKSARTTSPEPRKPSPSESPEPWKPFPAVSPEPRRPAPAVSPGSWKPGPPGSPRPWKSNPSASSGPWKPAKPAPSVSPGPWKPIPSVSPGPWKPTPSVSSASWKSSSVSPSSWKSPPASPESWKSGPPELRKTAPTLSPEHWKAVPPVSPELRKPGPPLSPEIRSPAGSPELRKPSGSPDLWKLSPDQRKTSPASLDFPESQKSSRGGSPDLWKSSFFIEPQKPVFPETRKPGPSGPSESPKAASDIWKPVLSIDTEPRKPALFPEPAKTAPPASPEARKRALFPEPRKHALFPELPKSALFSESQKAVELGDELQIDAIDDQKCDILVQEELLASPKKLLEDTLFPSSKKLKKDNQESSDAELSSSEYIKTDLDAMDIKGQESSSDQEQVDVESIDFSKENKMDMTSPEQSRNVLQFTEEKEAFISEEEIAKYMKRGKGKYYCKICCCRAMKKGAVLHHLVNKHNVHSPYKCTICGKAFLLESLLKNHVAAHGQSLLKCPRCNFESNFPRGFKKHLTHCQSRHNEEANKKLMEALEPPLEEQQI
UniProt Q8TDI0: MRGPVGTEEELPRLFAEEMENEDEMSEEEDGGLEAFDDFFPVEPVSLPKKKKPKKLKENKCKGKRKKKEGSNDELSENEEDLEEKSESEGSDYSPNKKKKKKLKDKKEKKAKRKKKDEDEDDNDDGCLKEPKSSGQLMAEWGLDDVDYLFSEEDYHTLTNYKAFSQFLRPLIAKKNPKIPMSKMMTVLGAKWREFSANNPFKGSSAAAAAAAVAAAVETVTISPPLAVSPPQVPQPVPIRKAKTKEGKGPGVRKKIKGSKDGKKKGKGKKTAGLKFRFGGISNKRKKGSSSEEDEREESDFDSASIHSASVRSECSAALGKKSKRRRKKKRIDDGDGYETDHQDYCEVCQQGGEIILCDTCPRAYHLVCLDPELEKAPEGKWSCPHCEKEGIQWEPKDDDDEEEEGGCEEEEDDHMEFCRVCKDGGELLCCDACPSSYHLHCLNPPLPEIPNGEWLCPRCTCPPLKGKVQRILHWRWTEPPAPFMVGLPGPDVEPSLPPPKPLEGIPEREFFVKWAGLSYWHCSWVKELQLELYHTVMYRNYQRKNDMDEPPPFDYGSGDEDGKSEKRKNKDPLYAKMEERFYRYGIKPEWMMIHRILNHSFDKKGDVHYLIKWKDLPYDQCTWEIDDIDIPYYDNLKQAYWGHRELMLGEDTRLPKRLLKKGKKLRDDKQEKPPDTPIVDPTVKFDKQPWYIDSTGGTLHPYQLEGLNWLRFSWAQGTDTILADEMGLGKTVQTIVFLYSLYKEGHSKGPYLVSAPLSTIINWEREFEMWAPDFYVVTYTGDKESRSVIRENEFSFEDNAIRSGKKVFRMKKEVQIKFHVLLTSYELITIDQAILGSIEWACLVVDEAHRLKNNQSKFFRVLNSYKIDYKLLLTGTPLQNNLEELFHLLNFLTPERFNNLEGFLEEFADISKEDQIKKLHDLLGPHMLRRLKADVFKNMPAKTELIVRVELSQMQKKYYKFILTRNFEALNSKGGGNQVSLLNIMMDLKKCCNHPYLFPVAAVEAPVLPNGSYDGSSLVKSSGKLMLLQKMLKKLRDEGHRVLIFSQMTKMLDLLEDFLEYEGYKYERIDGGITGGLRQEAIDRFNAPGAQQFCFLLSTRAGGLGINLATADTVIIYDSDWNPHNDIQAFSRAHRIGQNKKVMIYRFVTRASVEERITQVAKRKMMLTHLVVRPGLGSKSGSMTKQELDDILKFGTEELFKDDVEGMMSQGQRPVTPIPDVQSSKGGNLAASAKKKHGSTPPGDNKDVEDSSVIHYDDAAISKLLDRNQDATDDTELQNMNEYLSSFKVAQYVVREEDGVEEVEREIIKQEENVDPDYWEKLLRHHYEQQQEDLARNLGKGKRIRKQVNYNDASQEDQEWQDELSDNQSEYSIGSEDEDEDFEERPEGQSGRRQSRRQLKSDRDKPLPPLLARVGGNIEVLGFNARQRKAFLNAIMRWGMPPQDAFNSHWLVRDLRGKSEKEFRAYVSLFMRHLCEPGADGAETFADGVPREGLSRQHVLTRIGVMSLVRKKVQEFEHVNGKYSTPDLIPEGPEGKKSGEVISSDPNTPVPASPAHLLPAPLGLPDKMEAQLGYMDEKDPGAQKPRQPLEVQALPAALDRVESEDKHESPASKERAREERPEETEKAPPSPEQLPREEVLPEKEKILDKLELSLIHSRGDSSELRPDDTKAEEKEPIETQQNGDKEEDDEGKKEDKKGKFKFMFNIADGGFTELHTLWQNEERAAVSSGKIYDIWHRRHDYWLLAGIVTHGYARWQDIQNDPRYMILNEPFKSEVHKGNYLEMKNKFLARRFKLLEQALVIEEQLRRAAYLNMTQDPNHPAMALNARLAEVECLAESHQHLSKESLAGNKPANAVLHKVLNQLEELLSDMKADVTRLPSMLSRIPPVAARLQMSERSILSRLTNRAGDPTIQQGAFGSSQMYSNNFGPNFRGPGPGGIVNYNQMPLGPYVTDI
UniProt Q00534, whole entry, looked up: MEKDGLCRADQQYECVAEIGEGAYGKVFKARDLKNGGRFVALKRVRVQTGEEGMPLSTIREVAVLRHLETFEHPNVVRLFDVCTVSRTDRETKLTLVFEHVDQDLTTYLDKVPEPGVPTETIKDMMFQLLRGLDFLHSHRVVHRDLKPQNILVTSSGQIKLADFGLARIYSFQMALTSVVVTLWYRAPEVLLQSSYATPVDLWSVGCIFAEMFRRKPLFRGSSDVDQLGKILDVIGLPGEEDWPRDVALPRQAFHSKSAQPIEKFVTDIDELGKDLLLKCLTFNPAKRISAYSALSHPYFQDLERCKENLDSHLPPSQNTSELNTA
UniProt Q9HCU4: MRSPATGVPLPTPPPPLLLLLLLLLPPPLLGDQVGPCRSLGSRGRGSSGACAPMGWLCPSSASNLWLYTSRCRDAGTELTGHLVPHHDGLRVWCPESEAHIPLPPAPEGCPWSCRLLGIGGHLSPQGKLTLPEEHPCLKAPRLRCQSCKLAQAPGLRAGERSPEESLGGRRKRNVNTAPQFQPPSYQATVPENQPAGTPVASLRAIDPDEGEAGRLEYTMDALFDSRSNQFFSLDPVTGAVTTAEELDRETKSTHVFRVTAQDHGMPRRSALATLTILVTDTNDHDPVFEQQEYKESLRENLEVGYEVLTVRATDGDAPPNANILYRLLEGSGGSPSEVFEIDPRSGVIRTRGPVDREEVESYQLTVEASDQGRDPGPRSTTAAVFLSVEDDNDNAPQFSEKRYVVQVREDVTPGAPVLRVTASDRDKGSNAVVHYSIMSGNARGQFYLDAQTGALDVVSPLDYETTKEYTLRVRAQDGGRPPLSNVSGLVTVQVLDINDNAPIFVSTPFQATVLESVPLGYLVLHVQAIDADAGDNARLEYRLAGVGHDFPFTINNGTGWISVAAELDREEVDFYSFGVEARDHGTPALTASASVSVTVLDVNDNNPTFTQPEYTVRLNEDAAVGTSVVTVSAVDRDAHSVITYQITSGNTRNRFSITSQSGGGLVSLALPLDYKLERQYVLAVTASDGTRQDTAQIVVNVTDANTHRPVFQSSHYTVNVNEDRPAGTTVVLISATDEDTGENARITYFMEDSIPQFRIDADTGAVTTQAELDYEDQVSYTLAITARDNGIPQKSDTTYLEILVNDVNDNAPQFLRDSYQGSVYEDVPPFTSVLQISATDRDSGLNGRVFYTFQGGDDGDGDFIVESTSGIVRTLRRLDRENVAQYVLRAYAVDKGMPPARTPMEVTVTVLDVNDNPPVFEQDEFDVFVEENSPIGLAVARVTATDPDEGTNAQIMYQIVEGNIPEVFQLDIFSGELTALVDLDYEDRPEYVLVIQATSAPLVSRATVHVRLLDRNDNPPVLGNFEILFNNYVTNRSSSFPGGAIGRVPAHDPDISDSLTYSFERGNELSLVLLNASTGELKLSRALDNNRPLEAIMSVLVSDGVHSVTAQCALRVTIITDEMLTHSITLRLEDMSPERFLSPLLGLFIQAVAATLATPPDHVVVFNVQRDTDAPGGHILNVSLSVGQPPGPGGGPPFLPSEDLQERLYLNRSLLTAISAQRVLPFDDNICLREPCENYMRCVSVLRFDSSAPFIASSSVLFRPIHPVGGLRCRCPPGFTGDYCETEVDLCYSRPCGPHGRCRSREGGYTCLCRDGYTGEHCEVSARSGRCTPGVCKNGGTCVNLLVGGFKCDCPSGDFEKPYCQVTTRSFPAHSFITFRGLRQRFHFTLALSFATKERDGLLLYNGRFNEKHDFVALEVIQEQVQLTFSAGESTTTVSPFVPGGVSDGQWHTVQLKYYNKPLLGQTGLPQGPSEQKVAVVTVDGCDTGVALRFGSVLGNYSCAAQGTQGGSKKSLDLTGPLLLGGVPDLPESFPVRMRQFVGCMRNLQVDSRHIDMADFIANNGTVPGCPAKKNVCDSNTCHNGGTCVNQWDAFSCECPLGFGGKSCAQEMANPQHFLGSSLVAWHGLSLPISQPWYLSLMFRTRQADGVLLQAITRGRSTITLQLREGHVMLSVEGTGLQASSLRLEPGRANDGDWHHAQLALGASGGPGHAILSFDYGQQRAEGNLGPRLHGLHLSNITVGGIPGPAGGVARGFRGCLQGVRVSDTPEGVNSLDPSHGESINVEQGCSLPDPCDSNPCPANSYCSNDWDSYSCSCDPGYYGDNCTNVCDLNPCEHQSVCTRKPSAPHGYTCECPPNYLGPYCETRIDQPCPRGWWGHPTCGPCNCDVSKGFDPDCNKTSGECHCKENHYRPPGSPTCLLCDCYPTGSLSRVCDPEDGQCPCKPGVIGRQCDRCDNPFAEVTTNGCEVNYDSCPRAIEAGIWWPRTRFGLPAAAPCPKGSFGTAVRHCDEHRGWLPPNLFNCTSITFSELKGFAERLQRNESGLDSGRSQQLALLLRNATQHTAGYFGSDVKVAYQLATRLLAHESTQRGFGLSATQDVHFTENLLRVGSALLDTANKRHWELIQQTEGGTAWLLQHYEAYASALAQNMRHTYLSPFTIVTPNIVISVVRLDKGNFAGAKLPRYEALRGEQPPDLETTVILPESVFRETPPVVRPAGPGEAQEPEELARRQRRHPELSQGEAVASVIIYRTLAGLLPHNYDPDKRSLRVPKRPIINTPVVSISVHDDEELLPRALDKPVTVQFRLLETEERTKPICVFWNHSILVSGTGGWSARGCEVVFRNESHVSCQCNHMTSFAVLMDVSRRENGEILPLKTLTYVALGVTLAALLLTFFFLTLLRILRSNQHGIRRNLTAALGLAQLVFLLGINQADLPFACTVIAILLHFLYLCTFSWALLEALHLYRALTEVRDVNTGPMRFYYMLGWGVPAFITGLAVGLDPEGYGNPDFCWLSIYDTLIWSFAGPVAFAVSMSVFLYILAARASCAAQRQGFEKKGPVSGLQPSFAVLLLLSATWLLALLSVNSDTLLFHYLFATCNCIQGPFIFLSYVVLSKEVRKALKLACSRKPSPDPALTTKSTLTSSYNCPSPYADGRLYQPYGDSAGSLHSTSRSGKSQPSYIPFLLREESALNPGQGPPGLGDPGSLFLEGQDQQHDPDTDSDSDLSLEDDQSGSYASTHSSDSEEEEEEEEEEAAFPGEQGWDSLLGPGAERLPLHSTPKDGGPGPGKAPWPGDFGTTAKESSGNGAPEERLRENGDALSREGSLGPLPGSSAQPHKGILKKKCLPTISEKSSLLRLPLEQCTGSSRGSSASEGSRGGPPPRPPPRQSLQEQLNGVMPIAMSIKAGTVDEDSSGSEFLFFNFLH

Legend:
Assay in all cases: log2 fold change, soluble protein after heating vs DMSO (PISA); higher = thermal stabilisation; K562 cells, 10 uM, 30 min; active = over 0.2 and 3.5 SD of the protein, either way, in both replicates (recomputed)
[1] = compound: C1=CC=C(C=C1)[C@H](COC2=CC3=C(C=C2)NC(=O)N3)NC(=O)C4=CC=CN(C4=O)CC5=CC(=C(C=C5)F)F
How it was run: (§1)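 For each measurement, 10 μM compound was applied for 30 min to K562 cells at 2×10^6 cells/mL. Aliquots were heated for 3 min across 48°C-58°C, pooled, and extracted in PBS with 0.5% NP-40 at 4°C; the supernatant after 21,000xg for 90 min was soluble protein. This was quantified by TMTpro 16plex LC-MS/MS with channel sums equalised, and thermal stability was reported relative to control samples from duplicates, on a log2 fold-change scale.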

[2] = compound: CC1=C(SC2=C1C(=N[C@H](C3=NN=C(N32)C)CC(=O)N)C4=CC=C(C=C4)Cl)C
How it was run: as §1

[3] = compound: CC1=C2C(=CC=C1)N=C(N(C2=O)C3=CC=CC=C3C)CN4C=NC5=C(N=CN=C54)N
How it was run: as §1

[4] = compound: Cc1sc2c(c1C)C(c1ccc(Cl)cc1)=N[C@@H](CC(=O)OC(C)(C)C)c1nnc(C)n1-2
How it was run: as §1

[5] = compound: c1ccc([C@@H]2C[C@H]2NC2CCNCC2)cc1
How it was run: as §1

Measured: log2 fold change

CHMP4C (UniProt Q96CF2)
inactive: [1] -0.002 | [2] 0.169 | [3] 0.045 | [4] 0.051 | [5] 0.03

CDK16 isoform 2 (UniProt Q00536)
inactive: [1] -0.009 | [2] 0.026 | [3] 0.043 | [4] -0.014 | [5] -0.074

CHMP3 (UniProt Q9Y3E7)
inactive: [1] -0.016 | [2] 0.073 | [3] 0.115 | [4] -0.015 | [5] -0.039

CERS2 (UniProt Q96G23)
inactive: [1] -0.033 | [2] 0.035 | [3] -0.012 | [4] -0.036 | [5] 0.048

CHMP1A (UniProt Q9HD42)
inactive: [1] 0.005 | [2] 0.022 | [3] 0.014 | [4] 0.012 | [5] -0.008

CES2 isoform 4 (UniProt O00748)
inactive: [1] 0.041 | [2] -0.069 | [3] 0.061 | [4] 0.118 | [5] -0.141

CEP170 (UniProt Q5SW79)
inactive: [1] 0.027 | [2] -0.096 | [3] -0.057 | [4] 0.16 | [5] -0.019

CEP83 (UniProt Q9Y592)
inactive: [1] 0.131

CEMIP2 (UniProt Q9UHN6)
inactive: [1] -0.03 | [2] -0.017 | [3] 0.08 | [4] -0.04 | [5] 0.081

CDKN1C (UniProt P49918)
inactive: [1] -0.227

CDC42SE1 (UniProt Q9NRR8)
inactive: [1] -0.151 | [2] 0.016 | [3] 0.088 | [4] -0.076 | [5] -0.007

CENPE (UniProt Q02224)
inactive: [1] -0.005 | [2] -0.139 | [3] 0.049 | [4] -0.001 | [5] -0.362

CHAC2 (UniProt Q8WUX2)
inactive: [1] -0.036 | [2] -0.034 | [3] -0.034 | [4] 0.008 | [5] 0.027

CHEK2 isoform 9 (UniProt O96017)
inactive: [1] -0.04 | [2] 0.034 | [3] 0.036 | [4] -0.094 | [5] -0.035

CDK5RAP3 isoform 4 (UniProt Q96JB5)
inactive: [1] -0.042 | [2] 0.054 | [3] 0.099 | [4] 0 | [5] -0.05

CFAP97 (UniProt Q9P2B7)
inactive: [1] 0.055 | [2] -0.304 | [3] -0.085 | [4] 0.094 | [5] 0.045

CHCHD7 isoform 4 (UniProt Q9BUK0)
inactive: [1] -0.042 | [2] 0.151 | [3] -0.273 | [4] 0.042 | [5] 0.136

CHMP4A isoform 2 (UniProt Q9BY43)
inactive: [1] -0.011 | [2] 0.035 | [3] 0.005 | [4] 0.031 | [5] 0.04

CFDP1 (UniProt Q9UEE9)
inactive: [1] 0.06 | [2] 0.017 | [3] 0.058 | [4] -0.01 | [5] 0.03

CHEK1 (UniProt O14757)
inactive: [1] 0.006 | [2] 0.065 | [3] 0.087 | [4] 0.025 | [5] 0.01

CHCHD6 (UniProt Q9BRQ6)
inactive: [1] 0.242 | [2] 0.446 | [3] 0.262 | [4] 0.012 | [5] 0.05

CFH (UniProt P08603)
inactive: [1] 0 | [2] -0.097 | [3] -0.006 | [4] 0.043 | [5] 0.014

CDC42 (UniProt P60953)
inactive: [1] 0.074 | [2] -0.001 | [3] -0.04 | [4] -0.009 | [5] -0.033

CEP76 (UniProt Q8TAP6)
inactive: [1] 0.079 | [2] 0.067 | [3] 0.087 | [4] 0.013 | [5] 0.084

CHID1 (UniProt Q9BWS9)
inactive: [1] 0.034 | [2] -0.024 | [3] -0.021 | [4] 0.005 | [5] -0.025

CERS6 isoform 2 (UniProt Q6ZMG9)
inactive: [1] 0.006 | [2] 0.058 | [3] -0.046 | [4] -0.051 | [5] 0.016

CDC73 (UniProt Q6P1J9)
inactive: [1] -0.098 | [2] -0.572 | [3] 0.059 | [4] 0.023 | [5] -0.217

CDC42 isoform 1 (UniProt P60953)
inactive: [1] -0.007 | [2] -0.001 | [3] 0 | [4] 0.03 | [5] 0.037

CENPH (UniProt Q9H3R5)
inactive: [1] 0.009 | [2] -0.208 | [3] -0.029 | [4] 0.027 | [5] -0.035

CHMP4B (UniProt Q9H444)
inactive: [1] -0.015 | [2] -0.004 | [3] 0.031 | [4] 0.056 | [5] 0.054

CHKB (UniProt Q9Y259)
inactive: [1] -0.043 | [2] -0.041 | [3] 0.044 | [4] 0.128 | [5] 0.135

CFAP20 (UniProt Q9Y6A4)
inactive: [1] 0.059 | [2] -0.035 | [3] -0.016 | [4] 0.065 | [5] 0.041

CETN2 (UniProt P41208)
inactive: [1] 0.027 | [2] 0.046 | [3] -0.012 | [4] 0.06 | [5] 0.08

CEPT1 (UniProt Q9Y6K0)
inactive: [1] -0.064 | [2] 0.105 | [3] 0.074 | [4] -0.121 | [5] -0.054

CDKN2C (UniProt P42773)
inactive: [1] -0.015 | [2] 0.312 | [3] 0.077 | [4] -0.057 | [5] -0.171

CELF1 isoform 4 (UniProt Q92879)
inactive: [1] -0.076 | [2] -0.002 | [3] 0.096 | [4] -0.035 | [5] -0.045

CHML (UniProt P26374)
inactive: [1] -0.044 | [2] 0.075 | [3] 0.065 | [4] -0.036 | [5] 0.007

CDC42EP4 (UniProt Q9H3Q1)
inactive: [1] -0.014 | [2] 0.041 | [3] -0.28 | [4] 0.004 | [5] -0.048

CDCA5 (UniProt Q96FF9)
inactive: [1] -0.043 | [2] 0.022 | [3] 0.034 | [4] 0.054 | [5] -0.031

CHAMP1 (UniProt Q96JM3)
inactive: [1] -0.073 | [2] 0.044 | [3] 0.022 | [4] -0.051 | [5] -0.006

CHD5 (UniProt Q8TDI0)
inactive: [1] -0.006 | [2] 0.041 | [3] 0.188 | [4] -0.042 | [5] 0.012

CDK6 (UniProt Q00534)
inactive: [1] -0.005 | [2] -0.002 | [3] 0.005 | [4] -0.036 | [5] -0.055

CHAF1B (UniProt Q13112)
inactive: [1] 0.034 | [2] 0.017 | [3] 0.039 | [4] -0.028 | [5] 0.02

CDCP1 (UniProt Q9H5V8)
inactive: [1] -0.033 | [2] 0.055 | [3] -0.005 | [4] 0.021 | [5] 0.131

CDKAL1 (UniProt Q5VV42)
inactive: [1] -0.054 | [2] 0.001 | [3] 0.023 | [4] 0.012 | [5] -0.12

CDKN2AIP (UniProt Q9NXV6)
inactive: [1] -0.036 | [2] -0.044 | [3] -0.008 | [4] 0.021 | [5] -0.014

CDK2 (UniProt P24941)
inactive: [1] 0.005 | [2] 0.035 | [3] 0.07 | [4] -0.037 | [5] -0.004

CEP85 (UniProt Q6P2H3)
inactive: [1] -0.164 | [3] 0.043

Three successive records from above, quoted:
CHAC2 (UniProt Q8WUX2)
inactive: [1] -0.036 | [2] -0.034 | [3] -0.034 | [4] 0.008 | [5] 0.027

CHEK2 isoform 9 (UniProt O96017)
inactive: [1] -0.04 | [2] 0.034 | [3] 0.036 | [4] -0.094 | [5] -0.035

CDK5RAP3 isoform 4 (UniProt Q96JB5)
inactive: [1] -0.042 | [2] 0.054 | [3] 0.099 | [4] 0 | [5] -0.05

More entries

CELSR2 (UniProt Q9HCU4)
inactive: [2] -0.016 | [5] 0.257

CHM (UniProt P24386)
inactive: [2] 0.032 | [3] -0.026 | [4] -0.15 | [5] -0.018

CEP350 (UniProt Q5VT06)
inactive: [2] -0.049 | [4] -0.001 | [5] -0.056

CDK19 (UniProt Q9BWU1)
inactive: [2] 0.035 | [3] 0.05 | [4] 0.021 | [5] 0.019

CEP57 (UniProt Q86XR8)
inactive: [2] -0.157 | [5] -0.115

CENPU (UniProt Q71F23)
inactive: [4] 0.375

CDC42EP2 (UniProt O14613)
inactive: [1] 0.258 | [4] 0.011

CEND1 (UniProt Q8N111)
inactive: [4] -0.026

CHCHD10 (UniProt Q8WYQ3)
inactive: [1] 0.048 | [3] -0.064

CDC45 isoform 3 (UniProt O75419)
inactive: [2] 0.018 | [4] 0.124 | [5] 0.061
